PubChem BioAssay AID1259308 – NCATS | 2017
In all, the deposit lists about 59,000 reagents; below is a random part of them. Of all reagents, about 1,510 (2.6%) were called active. 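Calls use total luciferase alone and ignore viability, so some active siRNAs may act by altering cell number.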 Entries without a mark were called inactive. Reagents against one gene are numbered here. Further read-outs or replicates are left out here.

Purpose: 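Genes whose loss raises luciferase production in HEK293 cells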 (primary screen)
System: human HEK293 embryonic kidney cells stably expressing firefly luciferase (HEK-CMV-Luc2-Hygro)
Reagent: single siRNA against human genes, 0.8 pmol siRNA per well
Duration: 72 h
Measurement: 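Luciferase light (ONE-Glo) measured on one replicate plate set and viability (CellTiter-Glo) on the other, scaled to a negative control siRNA, with robust z-scores and luciferase per cell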
Direction: total luciferase, z-score: higher = more reporter protein produced
Call rule: 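An siRNA counts as active if its total luciferase robust z-score exceeds 3; genes with two or more such siRNAs out of three were retested with fresh siRNAs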
Meaning of the calls: active = raised luciferase; inactive = no rise

MGAT2 #1: total luciferase, z-score = 0.681
MGAT2 #2: total luciferase, z-score = 1.37
MGAT2 #3: total luciferase, z-score = 0.733
DDX28 (DEAD-box helicase 28) #1: total luciferase, z-score = 0.334
DDX28 (DEAD-box helicase 28) #2: total luciferase, z-score = 0.944
DDX28 (DEAD-box helicase 28) #3: total luciferase, z-score = 3.15 (active)
KRT72 (keratin 72) #1: total luciferase, z-score = 0.966
KRT72 (keratin 72) #2: total luciferase, z-score = -0.86
KRT72 (keratin 72) #3: total luciferase, z-score = 1.52
ELAVL1 (ELAV like RNA binding protein 1) #1: total luciferase, z-score = 0.562
ELAVL1 (ELAV like RNA binding protein 1) #2: total luciferase, z-score = -0.538
ELAVL1 (ELAV like RNA binding protein 1) #3: total luciferase, z-score = -0.418
RUVBL2 (RuvB like AAA ATPase 2) #1: total luciferase, z-score = 1.23
RUVBL2 (RuvB like AAA ATPase 2) #2: total luciferase, z-score = 0.339
RUVBL2 (RuvB like AAA ATPase 2) #3: total luciferase, z-score = 2.03
ECM2 (extracellular matrix protein 2) #1: total luciferase, z-score = 0.184
ECM2 (extracellular matrix protein 2) #2: total luciferase, z-score = -0.331
ECM2 (extracellular matrix protein 2) #3: total luciferase, z-score = 0.132
INSC (INSC spindle orientation adaptor protein) #1: total luciferase, z-score = -0.166
INSC (INSC spindle orientation adaptor protein) #2: total luciferase, z-score = -0.516
INSC (INSC spindle orientation adaptor protein) #3: total luciferase, z-score = -2.33
IVL (involucrin) #1: total luciferase, z-score = 0.705
IVL (involucrin) #2: total luciferase, z-score = -1.85
IVL (involucrin) #3: total luciferase, z-score = -1.09
KAT8 (lysine acetyltransferase 8) #1: total luciferase, z-score = -0.204
KAT8 (lysine acetyltransferase 8) #2: total luciferase, z-score = -0.738
KAT8 (lysine acetyltransferase 8) #3: total luciferase, z-score = -0.391
ARHGAP31 (Rho GTPase activating protein 31) #1: total luciferase, z-score = -0.477
ARHGAP31 (Rho GTPase activating protein 31) #2: total luciferase, z-score = 0.655
ARHGAP31 (Rho GTPase activating protein 31) #3: total luciferase, z-score = -1.91
PRRX1 (paired related homeobox 1) #1: total luciferase, z-score = 0.00899
PRRX1 (paired related homeobox 1) #2: total luciferase, z-score = -0.0761
PRRX1 (paired related homeobox 1) #3: total luciferase, z-score = -0.55

Individual results from the list:
For “total luciferase, z-score”, ARHGAP31 (Rho GTPase activating protein 31) #2 is entered as 0.655
INSC (INSC spindle orientation adaptor protein) #2, total luciferase, z-score → -0.516
For “total luciferase, z-score”, ELAVL1 (ELAV like RNA binding protein 1) #3 shows -0.418
IVL (involucrin) #2, total luciferase, z-score: -1.85
